Some entries share one result that the patent states for a list of compounds.
What was measured:
[1] = system: Phaeosphaeria nodorum (Septoria nodorum); experiment: Phaeosphaeria nodorum (Septoria nodorum) / wheat / leaf disc preventative (glume blotch); type: in vivo; conditions: 200 ppm; wheat leaf segments cv. Kanzler; inoculated 2 days after application; assessed 5-7 days after application
[2] = system: Mycosphaerella arachidis (Cercospora arachidicola); experiment: Mycosphaerella arachidis (Cercospora arachidicola) / liquid culture (early leaf spot); type: cell-based; conditions: 20 ppm; liquid culture (PDB), 24° C.; growth inhibition photometrically 4-5 days after application
Pyrenophora teres = Pyrenophora teres / barley / leaf disc preventative (net blotch); type: in vivo; conditions: 200 ppm; barley leaf segments cv. Hasso; inoculated 2 days after application; assessed 5-7 days after application
[3] = system: Botryotinia fuckeliana (Botrytis cinerea); experiment: Botryotinia fuckeliana (Botrytis cinerea) / liquid culture (gray mould); type: cell-based; conditions: 20 ppm; liquid culture (Vogels broth), 24° C.; growth inhibition photometrically 3-4 days after application
Sclerotinia sclerotiorum = Sclerotinia sclerotiorum / liquid culture (cottony rot); type: cell-based; conditions: 20 ppm; liquid culture (PDB), mycelia fragments, 24° C.; growth inhibition photometrically 3-4 days after application
Alternaria solani = Alternaria solani / tomato / leaf disc (early blight); type: in vivo; conditions: 200 ppm; tomato leaf disks cv. Baby; inoculated 2 days after application; assessed 5-7 days after application
[4] = system: Blumeria graminis f. sp. tritici (Erysiphe graminis f. sp. tritici); experiment: Blumeria graminis f. sp. tritici / wheat / leaf disc preventative (powdery mildew on wheat); type: in vivo; conditions: 200 ppm; wheat leaf segments cv. Kanzler; inoculated 1 day after application; assessed 6-8 days after application

Cn1cc(C(C)(CNC(=O)c2cc(-c3ccc(F)cc3F)on2)c2nc(C(F)(F)F)cs2)cn1 (stereo not drawn) [Compound P-9, 5-(2,4-difluorophenyl)-N-[2-(1-methylpyrazol-4-yl)-2-[4-(trifluoromethyl)thiazol-2-yl]propyl]isoxazole-3-carboxamide]
at least 80%: control of Phaeosphaeria nodorum compared to untreated control [1] | control of Mycosphaerella arachidis compared to untreated control [2] | control of Pyrenophora teres compared to untreated control (Pyrenophora teres) | control of Botryotinia fuckeliana compared to untreated control [3] | control of Sclerotinia sclerotiorum compared to untreated control (Sclerotinia sclerotiorum) | control of Alternaria solani compared to untreated control (Alternaria solani) | control of Blumeria graminis f. sp. tritici compared to untreated control [4]

Cn1cc(C(C)(CNC(=O)c2cc(-c3ccc(F)cc3F)on2)c2nc(Br)cs2)cn1 (stereo not drawn) [Compound P-8, N-[2-(4-bromothiazol-2-yl)-2-(1-methylpyrazol-4-yl)propyl]-5-(2,4-difluorophenyl) isoxazole-3-carboxamide]
at least 80%: control of Phaeosphaeria nodorum compared to untreated control [1] | control of Mycosphaerella arachidis compared to untreated control [2] | control of Pyrenophora teres compared to untreated control (Pyrenophora teres) | control of Botryotinia fuckeliana compared to untreated control [3] | control of Sclerotinia sclerotiorum compared to untreated control (Sclerotinia sclerotiorum) | control of Alternaria solani compared to untreated control (Alternaria solani)

Cn1cc(C(C)(CNC(=O)c2cc(-c3ccc(F)cc3F)on2)c2nc(Cl)cs2)cn1 (single isomer, unassigned) [Compound P-5, N-[2-(4-chlorothiazol-2-yl)-2-(1-methylpyrazol-4-yl)propyl]-5-(2,4-difluorophenyl) isoxazole-3-carboxamide]
at least 80%: control of Phaeosphaeria nodorum compared to untreated control [1] | control of Mycosphaerella arachidis compared to untreated control [2] | control of Pyrenophora teres compared to untreated control (Pyrenophora teres) | control of Botryotinia fuckeliana compared to untreated control [3] | control of Alternaria solani compared to untreated control (Alternaria solani) | control of Blumeria graminis f. sp. tritici compared to untreated control [4]

Cn1cc(C(C)(CNC(=O)c2cc(-c3ccc(F)cc3F)on2)c2ccn(C)n2)cn1 (stereo not drawn) [Compound P-1, 5-(2,4-difluorophenyl)-N-[2-(1-methylpyrazol-3-yl)-2-(1-methylpyrazol-4-yl)propyl]isoxazole-3-carboxamide]
at least 80%: control of Pyrenophora teres compared to untreated control (Pyrenophora teres) | control of Alternaria solani compared to untreated control (Alternaria solani) | control of Blumeria graminis f. sp. tritici compared to untreated control [4]

Cn1cc(C(C)(CNC(=O)c2cc(-c3ccc(F)cc3F)on2)c2nc(C3CC3)cs2)cn1 (stereo not drawn) [Compound P-11, N-[2-(4-cyclopropylthiazol-2-yl)-2-(1-methylpyrazol-4-yl)propyl]-5-(2,4-difluorophenyl) isoxazole-3-carboxamide]
at least 80%: control of Phaeosphaeria nodorum compared to untreated control [1] | control of Mycosphaerella arachidis compared to untreated control [2] | control of Pyrenophora teres compared to untreated control (Pyrenophora teres) | control of Botryotinia fuckeliana compared to untreated control [3] | control of Alternaria solani compared to untreated control (Alternaria solani)

Cn1cc(C(C)(CNC(=O)c2cc(-c3ccc(F)cc3F)on2)c2nccs2)cn1 (stereo not drawn) [Compound P-2, 5-(2,4-difluorophenyl)-N-[2-(1-methylpyrazol-4-yl)-2-thiazol-2-yl-propyl]isoxazole-3-carboxamide]
at least 80%: control of Phaeosphaeria nodorum compared to untreated control [1] | control of Pyrenophora teres compared to untreated control (Pyrenophora teres) | control of Botryotinia fuckeliana compared to untreated control [3] | control of Alternaria solani compared to untreated control (Alternaria solani)

Cn1cc(C(C)(CNC(=O)c2cc(-c3ccc(F)cc3F)on2)c2nc(Cl)cs2)cn1 (racemic) [Compound P-4, N-[2-(4-chlorothiazol-2-yl)-2-(1-methylpyrazol-4-yl)propyl]-5-(2,4-difluorophenyl)isoxazole-3-carboxamide]
at least 80%: control of Phaeosphaeria nodorum compared to untreated control [1] | control of Mycosphaerella arachidis compared to untreated control [2] | control of Pyrenophora teres compared to untreated control (Pyrenophora teres) | control of Botryotinia fuckeliana compared to untreated control [3] | control of Sclerotinia sclerotiorum compared to untreated control (Sclerotinia sclerotiorum) | control of Alternaria solani compared to untreated control (Alternaria solani) | control of Blumeria graminis f. sp. tritici compared to untreated control [4]

Cn1cc(C(C)(CNC(=O)c2cc(-c3ccc(F)cc3F)on2)c2csc(Br)n2)cn1 (stereo not drawn) [Compound P-10, N-[2-(2-bromothiazol-4-yl)-2-(1-methylpyrazol-4-yl)propyl]-5-(2,4-difluorophenyl) isoxazole-3-carboxamide]
at least 80%: control of Phaeosphaeria nodorum compared to untreated control [1] | control of Mycosphaerella arachidis compared to untreated control [2] | control of Pyrenophora teres compared to untreated control (Pyrenophora teres) | control of Botryotinia fuckeliana compared to untreated control [3] | control of Sclerotinia sclerotiorum compared to untreated control (Sclerotinia sclerotiorum) | control of Alternaria solani compared to untreated control (Alternaria solani) | control of Blumeria graminis f. sp. tritici compared to untreated control [4]

— patent US20250011314A1, “MICROBIOCIDAL PYRAZOLE DERIVATIVES” (SYNGENTA CROP PROTECTION AG, priority 2021, published 2025)
